This passage reports binding results from paper PMC7295806.

By UniProt entry, the sequences of proteins in these tests, tags left out.
UniProt Q99728: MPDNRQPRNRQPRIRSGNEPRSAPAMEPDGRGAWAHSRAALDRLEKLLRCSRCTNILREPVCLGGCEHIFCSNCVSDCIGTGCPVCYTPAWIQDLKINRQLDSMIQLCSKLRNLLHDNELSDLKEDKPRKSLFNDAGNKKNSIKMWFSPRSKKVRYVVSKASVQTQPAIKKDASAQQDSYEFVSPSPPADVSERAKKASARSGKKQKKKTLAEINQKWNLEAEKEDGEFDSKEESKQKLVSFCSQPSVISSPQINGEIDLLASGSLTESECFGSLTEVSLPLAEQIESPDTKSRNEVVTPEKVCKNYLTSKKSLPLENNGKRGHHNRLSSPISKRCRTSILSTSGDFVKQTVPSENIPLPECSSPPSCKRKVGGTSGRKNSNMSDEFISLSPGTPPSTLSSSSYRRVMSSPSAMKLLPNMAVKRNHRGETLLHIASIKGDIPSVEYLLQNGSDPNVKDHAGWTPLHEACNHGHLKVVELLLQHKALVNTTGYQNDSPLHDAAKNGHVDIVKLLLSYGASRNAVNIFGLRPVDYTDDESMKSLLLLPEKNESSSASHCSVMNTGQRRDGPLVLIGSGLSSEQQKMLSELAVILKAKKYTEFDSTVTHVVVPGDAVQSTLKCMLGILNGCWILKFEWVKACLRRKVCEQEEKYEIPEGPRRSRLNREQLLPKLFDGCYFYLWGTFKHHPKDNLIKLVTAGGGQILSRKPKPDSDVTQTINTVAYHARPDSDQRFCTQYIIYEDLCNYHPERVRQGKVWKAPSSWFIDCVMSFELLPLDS
UniProt Q92560: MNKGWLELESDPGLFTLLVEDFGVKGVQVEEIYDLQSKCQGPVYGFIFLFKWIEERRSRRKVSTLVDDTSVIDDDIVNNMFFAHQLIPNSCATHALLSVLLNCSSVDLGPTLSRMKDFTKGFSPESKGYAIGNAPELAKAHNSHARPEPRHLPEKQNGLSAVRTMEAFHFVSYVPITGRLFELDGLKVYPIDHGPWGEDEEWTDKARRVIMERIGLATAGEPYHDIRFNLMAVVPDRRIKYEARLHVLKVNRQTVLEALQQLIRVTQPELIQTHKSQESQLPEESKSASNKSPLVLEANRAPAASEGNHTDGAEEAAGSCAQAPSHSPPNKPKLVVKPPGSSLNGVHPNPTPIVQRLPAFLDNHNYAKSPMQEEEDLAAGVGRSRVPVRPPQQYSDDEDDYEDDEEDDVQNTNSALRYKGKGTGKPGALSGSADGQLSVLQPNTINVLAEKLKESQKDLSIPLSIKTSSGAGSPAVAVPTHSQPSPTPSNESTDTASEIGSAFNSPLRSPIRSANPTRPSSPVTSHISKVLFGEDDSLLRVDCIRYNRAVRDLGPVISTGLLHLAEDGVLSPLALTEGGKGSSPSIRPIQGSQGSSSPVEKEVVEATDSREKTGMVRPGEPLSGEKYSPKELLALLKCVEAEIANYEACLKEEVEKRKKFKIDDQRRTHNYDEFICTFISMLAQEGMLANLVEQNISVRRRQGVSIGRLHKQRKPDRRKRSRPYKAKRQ

For the assay, the target named is Flag-tagged wild-type full-length BARD1 (BRCA1-associated RING domain 1) (UniProt Q99728). The assay is described as follows: co-IP; HEK293T transfected with Flag-BARD1; nuclear extracts (buffer C: 20 mM HEPES, 480 mM KCl, 0.1% Igepal CA-630, 0.1% SDS) on anti-FLAG beads overnight at 4 °C; western blotting for endogenous proteins; cells with full-length BARD1 also exposed to 10 Gy of IR. A general note: In western blotting, separated proteins are transferred to a membrane and probed.

No constants are given. Whether binding was seen depends on the method and setting. In cells and extracts the contact can be indirect. Some results given as binding are weak or reduced against the parent protein; the word gives no strength.

For “BAP1 (BRCA1 Associated Protein-1) (from UniProt Q92560 1-729)”, the binding entry is “binds”.
